Assay results taken from paper PMC12130296.
These are yes or no findings as the source states them, for the method shown. In cells and extracts the contact can be indirect. Some results given as binding are weak or reduced against the parent protein; the word gives no strength.

Amino acid sequences for entries named in this document (tags omitted).
UniProt Q13546: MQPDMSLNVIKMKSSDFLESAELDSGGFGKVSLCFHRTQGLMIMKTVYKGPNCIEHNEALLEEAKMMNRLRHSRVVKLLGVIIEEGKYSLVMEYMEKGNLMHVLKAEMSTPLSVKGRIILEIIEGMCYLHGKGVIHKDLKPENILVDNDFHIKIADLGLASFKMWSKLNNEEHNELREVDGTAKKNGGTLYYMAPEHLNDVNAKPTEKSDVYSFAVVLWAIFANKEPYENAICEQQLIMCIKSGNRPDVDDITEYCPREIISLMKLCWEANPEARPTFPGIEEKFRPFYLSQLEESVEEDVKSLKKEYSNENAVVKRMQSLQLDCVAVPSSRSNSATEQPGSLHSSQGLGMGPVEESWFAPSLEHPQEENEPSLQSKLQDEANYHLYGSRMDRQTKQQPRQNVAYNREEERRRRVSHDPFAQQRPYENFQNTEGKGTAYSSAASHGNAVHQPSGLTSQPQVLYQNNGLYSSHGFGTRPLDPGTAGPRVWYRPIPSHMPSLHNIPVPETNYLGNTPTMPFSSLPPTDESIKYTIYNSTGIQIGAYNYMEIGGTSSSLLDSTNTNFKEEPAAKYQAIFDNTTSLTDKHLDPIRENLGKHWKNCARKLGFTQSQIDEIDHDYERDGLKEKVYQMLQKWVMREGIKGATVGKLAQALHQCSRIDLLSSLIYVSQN
UniProt Q13158: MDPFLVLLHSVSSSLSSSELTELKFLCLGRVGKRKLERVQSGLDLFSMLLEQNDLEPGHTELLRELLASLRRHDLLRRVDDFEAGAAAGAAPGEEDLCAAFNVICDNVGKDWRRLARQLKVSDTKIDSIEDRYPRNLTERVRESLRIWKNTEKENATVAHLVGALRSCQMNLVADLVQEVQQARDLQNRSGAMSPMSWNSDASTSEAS

How the values were obtained:
[1] = molecular target: T1, CD95 (human (endogenous in SUIT-020 and HT29)), P25445; experiment: co-IP; DISC IP (anti-APO-1 antibody against CD95) from SUIT-020 cells treated with 500 ng/ml CD95L alone for the indicated timepoints, unstimulated sample included; western blot; conditions: remark: other sources report otherwise
T1 chain: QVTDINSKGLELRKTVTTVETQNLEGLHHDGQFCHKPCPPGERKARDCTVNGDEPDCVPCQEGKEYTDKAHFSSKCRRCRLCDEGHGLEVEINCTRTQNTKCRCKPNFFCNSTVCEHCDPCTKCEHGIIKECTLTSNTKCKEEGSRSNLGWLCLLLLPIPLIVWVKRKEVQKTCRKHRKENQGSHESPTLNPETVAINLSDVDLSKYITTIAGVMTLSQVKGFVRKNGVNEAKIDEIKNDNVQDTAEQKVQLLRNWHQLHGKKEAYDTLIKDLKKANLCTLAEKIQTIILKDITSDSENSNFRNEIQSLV

[2] = molecular target: RIPK1 (human (endogenous in HT29, SUIT-020 and Jurkat)) (UniProt Q13546); experiment: co-IP; endogenous proteins; HT29, SUIT-020 or Jurkat cells pretreated 1 h with 5 µM BV6 and 50 µM zVAD-fmk (some samples also 10 µM Nec-1s), then 500 ng/ml CD95L; IP with 2 µg antibody against the bait, rotated overnight at 4 °C, washed four times with PBS; western blot
[3] = molecular target: phosphorylated form of RIPK1 (pRIPK1) (human (endogenous in HT29, SUIT-020 and Jurkat)) (UniProt Q13546); experiment: as above
[4] = molecular target: procaspase-8 (human (endogenous in HT29, SUIT-020 and Jurkat)) (UniProt Q14790); experiment: as above
[5] = molecular target: FADD (human (endogenous in HT29, SUIT-020 and Jurkat)) (UniProt Q13158); experiment: as above
[6] = molecular target: phosphorylated form of RIPK1 (pRIPK1) (human (endogenous in HT29, SUIT-020 and Jurkat)) (UniProt Q13546); experiment: co-IP; SUIT-020 cells, BV6/zVAD-fmk 1 h then 500 ng/ml CD95L 2 h; lysate fractionated on Superose 6 10/300 at 4 °C; IP from the pooled high molecular weight fractions 2–6; western blot

Measured: binding

B1: procaspase-8, Q14790 1-479 (protein)
chain: MDFSRNLYDIGEQLDSEDLASLKFLSLDYIPQRKQEPIKDALMLFQRLQEKRMLEESNLSFLKELLFRINRLDLLITYLNTRKEEMERELQTPGRAQISAYRVMLYQISEEVSRSELRSFKFLLQEEISKCKLDDDMNLLDIFIEMEKRVILGEGKLDILKRVCAQINKSLLKIINDYEEFSKERSSSLEGSPDEFSNGEELCGVMTISDSPREQDSESQTLDKVYQMKSKPRGYCLIINNHNFAKAREKVPKLHSIRDRNGTHLDAGALTTTFEELHFEIKPHDDCTVEQIYEILKIYQLMDHSNMDCFICCILSHGDKGIIYGTDGQEAPIYELTSQFTGLKCPSLAGKPKVFFIQACQGDNYQKGIPVETDSEEQPYLEMDLSSPQTRYIPDEADFLLGMATVNNCVSYRNPAEGTWYIQSLCQSLRERCPRGDDILTILTEVNYEVSNKDDKKNMGKQMPQPTFTLRKKLVFPSD
binds: [1]

B2: procaspase-10 (protein, UniProt Q92851 1-521)
chain: MKSQGQHWYSSSDKNCKVSFREKLLIIDSNLGVQDVENLKFLCIGLVPNKKLEKSSSASDVFEHLLAEDLLSEEDPFFLAELLYIIRQKKLLQHLNCTKEEVERLLPTRQRVSLFRNLLYELSEGIDSENLKDMIFLLKDSLPKTEMTSLSFLAFLEKQGKIDEDNLTCLEDLCKTVVPKLLRNIEKYKREKAIQIVTPPVDKEAESYQGEEELVSQTDVKTFLEALPQESWQNKHAGSNGNRATNGAPSLVSRGMQGASANTLNSETSTKRAAVYRMNRNHRGLCVIVNNHSFTSLKDRQGTHKDAEILSHVFQWLGFTVHIHNNVTKVEMEMVLQKQKCNPAHADGDCFVFCILTHGRFGAVYSSDEALIPIREIMSHFTALQCPRLAEKPKLFFIQACQGEEIQPSVSIEADALNPEQAPTSLQDSIPAEADFLLGLATVPGYVSFRHVEEGSWYIQSLCNHLKKLVPRMLKFLEKTMEIRGRKRTVWGAKQISATSLPTAISAQTPRPPMRRWSSVS
not listed: [1]
binds: all other assays above
